Source: doi:10.1101/2021.07.15.452545
Results are given in words; binding and its absence hold for the method and conditions named. Binding seen in cells or lysates may run through a third protein. Some binding calls cover weakened binding; strength is not graded here.

Protein sequences, listed by entry. Tags and fused reporters are not part of them. Lines headed by an entry give the natural chain unless they say otherwise; changes in a name come on top. Chains listed by the source or under a name are the forms on record and can include a tag or linker.
UniProt P63096: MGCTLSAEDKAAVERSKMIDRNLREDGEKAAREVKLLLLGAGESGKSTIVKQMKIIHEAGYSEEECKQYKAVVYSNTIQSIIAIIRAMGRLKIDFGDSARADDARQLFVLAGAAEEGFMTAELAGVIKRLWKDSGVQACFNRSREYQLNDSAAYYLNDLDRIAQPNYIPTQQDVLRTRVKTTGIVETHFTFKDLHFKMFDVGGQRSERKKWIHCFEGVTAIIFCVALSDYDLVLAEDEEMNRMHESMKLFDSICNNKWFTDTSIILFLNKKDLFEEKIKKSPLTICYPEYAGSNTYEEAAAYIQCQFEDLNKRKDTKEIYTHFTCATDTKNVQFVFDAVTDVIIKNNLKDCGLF
Gαi1-QL-FLAG-APEX2 (P63096, form named): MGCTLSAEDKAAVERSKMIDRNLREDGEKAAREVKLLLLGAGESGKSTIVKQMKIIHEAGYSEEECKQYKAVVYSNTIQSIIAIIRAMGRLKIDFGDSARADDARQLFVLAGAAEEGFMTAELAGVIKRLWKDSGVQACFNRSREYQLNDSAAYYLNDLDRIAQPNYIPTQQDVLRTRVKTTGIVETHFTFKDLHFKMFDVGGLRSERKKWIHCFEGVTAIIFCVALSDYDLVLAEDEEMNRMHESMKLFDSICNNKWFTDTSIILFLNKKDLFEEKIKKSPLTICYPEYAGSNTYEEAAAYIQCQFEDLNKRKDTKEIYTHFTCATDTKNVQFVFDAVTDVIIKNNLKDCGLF
UniProt O15085: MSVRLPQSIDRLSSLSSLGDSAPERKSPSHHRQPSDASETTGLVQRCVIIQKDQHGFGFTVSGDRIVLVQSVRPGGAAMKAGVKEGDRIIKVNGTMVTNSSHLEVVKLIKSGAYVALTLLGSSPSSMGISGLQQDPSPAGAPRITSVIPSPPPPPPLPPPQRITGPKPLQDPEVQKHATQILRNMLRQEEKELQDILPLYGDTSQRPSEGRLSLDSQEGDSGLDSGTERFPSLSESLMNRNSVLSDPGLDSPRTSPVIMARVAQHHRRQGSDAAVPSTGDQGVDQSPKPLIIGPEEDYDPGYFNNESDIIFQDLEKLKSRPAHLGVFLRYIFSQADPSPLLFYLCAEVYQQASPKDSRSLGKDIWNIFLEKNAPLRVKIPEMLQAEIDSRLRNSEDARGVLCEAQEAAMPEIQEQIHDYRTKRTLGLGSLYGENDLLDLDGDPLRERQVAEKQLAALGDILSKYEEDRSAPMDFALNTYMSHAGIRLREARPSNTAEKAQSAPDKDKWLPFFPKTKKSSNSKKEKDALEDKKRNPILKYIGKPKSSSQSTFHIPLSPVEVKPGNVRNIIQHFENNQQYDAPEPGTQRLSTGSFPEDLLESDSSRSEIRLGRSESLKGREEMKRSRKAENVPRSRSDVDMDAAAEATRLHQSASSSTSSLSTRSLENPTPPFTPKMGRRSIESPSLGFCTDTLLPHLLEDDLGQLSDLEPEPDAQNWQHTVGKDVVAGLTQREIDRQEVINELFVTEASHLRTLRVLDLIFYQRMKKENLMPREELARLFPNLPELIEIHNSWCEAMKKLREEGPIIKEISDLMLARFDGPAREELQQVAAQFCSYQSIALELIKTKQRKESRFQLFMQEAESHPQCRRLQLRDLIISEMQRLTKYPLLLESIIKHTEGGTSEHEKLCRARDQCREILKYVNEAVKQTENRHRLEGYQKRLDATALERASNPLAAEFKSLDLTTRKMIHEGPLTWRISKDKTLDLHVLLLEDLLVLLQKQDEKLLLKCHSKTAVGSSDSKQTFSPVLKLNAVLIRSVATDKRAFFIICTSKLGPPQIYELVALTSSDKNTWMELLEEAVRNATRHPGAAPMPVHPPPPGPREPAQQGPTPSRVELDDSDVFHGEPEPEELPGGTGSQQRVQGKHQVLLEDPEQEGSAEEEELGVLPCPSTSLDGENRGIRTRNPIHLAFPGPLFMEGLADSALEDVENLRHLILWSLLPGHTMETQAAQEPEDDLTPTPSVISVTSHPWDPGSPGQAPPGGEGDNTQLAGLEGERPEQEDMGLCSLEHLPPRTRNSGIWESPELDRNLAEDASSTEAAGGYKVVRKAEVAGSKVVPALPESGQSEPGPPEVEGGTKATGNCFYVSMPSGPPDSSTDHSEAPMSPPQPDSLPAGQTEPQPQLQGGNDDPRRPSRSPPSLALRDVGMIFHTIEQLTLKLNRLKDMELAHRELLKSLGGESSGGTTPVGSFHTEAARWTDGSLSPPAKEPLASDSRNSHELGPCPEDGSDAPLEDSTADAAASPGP

Target: Gαi1-QL-FLAG-APEX2 (UniProt P63096)
Assay: proximity ligation

binding: binds
Substance: GFP-PRG (from UniProt O15085 1-1522)
